Consider one molecule from US20240352100A1 (AJOU UNIVERSITY INDUSTRY ACADEMIC COOPERATION FOUNDATION, published 2024).

By UniProt entry, the sequences of proteins in these tests, tags left out. Residues count along the entry.
UniProt P35222, residues 2-781: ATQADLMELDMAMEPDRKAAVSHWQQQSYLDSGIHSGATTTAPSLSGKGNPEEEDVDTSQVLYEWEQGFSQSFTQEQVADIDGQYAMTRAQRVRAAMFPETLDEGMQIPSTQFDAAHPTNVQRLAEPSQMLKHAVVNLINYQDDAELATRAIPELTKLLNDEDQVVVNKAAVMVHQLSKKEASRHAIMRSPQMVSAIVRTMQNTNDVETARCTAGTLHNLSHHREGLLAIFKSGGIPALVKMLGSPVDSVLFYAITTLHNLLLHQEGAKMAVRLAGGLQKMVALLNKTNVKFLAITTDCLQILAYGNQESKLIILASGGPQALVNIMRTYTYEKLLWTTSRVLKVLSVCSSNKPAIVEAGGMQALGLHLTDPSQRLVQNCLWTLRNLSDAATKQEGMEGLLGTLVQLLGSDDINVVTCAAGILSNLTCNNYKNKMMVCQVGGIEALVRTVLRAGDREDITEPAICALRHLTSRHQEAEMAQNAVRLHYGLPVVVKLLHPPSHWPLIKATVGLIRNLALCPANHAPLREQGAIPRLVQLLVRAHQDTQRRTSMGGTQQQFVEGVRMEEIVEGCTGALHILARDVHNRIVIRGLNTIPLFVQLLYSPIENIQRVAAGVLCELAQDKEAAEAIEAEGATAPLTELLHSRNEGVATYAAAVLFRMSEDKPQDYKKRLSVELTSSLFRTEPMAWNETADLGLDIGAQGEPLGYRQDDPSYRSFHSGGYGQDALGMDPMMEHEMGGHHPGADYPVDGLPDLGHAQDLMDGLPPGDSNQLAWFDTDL

The assay concerns the target β-catenin (endogenous, in colon cancer cell lines) (human) (UniProt P35222). Kind of assay: co-immunoprecipitation from LoVo cells treated with 2 µM antibody, Western blot. On the technique in general: In western blotting, separated proteins are transferred to a membrane and probed.

No constants are given. Whether binding was seen depends on the method and setting. In cells and extracts the contact can be indirect. Some binding calls cover weakened binding; strength is not graded here.

B1: inBC2 (antibody, V domains shown)
VH: QVQLVESGGGVVQPGRSLRLSCAASGFTFSSYPMHWVRQAPGKGLEWVAVVSYDGSYKYYADSVKGRLTISRDNSKNTLYLQMNSLRAEDTAVYYCARATVRGVTKIRGVFDSWGQGTLVTVSS
VL: DYQLTQSPSSLSASVGDRVTITCKSSQSLLNSRDGKNYLAWYQQKPGKAPKMLIYWASTRESGVPSRFSGSGSGTDFTLTISSLQPEDFATYFCQQYWYWMFTFGQGTKVEIKR
notes: Complete immunoglobulin; FR4 back-mutated form of inBC0; also called anti-β-catenin cytosol-penetrating interfering antibody inBC2; anti-β-catenin iMab
On to B1, for which the binding entry is “binds”.
